The record followed here is patent US20080287669A1, “METHODS AND COMPOSITIONS FOR IDENTIFYING COMPOUNDS USEFUL IN NUCLEIC ACID PURIFICATION” (priority 2007, published 2008).

Series [1] relates to RNA from Jurkat cell line. In words: RNA isolation from Jurkat cells, Absolutely RNA Miniprep Kit protocol, solvent in binding buffer.
Series [2] has as its system RNA from Jurkat cell line. Nature of the series: RNA isolation from Jurkat cells, glass fiber filter (NAP) protocol, solvent in binding buffer; yield/purity by A260 and A260/A280, quality by Agilent Bioanalyzer.
The test system of series [3] is RNA from white blood cells. In words: RNA isolation from white blood cells, Stratagene Absolutely RNA kit (spin-cup protocol), solvent in binding buffer.
Series [4] has as its system RNA from white blood cells. In words: RNA purification from white blood cells, NAP protocol, solvent in binding buffer.
Series [5] concerns nucleic acid (RNA). In words: Testing of solvents in Absolutely RNA Miniprep kit or NAP protocol (Jurkat cells or blood). As to conditions: standard conditions.
Setting [6] is: 35% ethanol, NAP, Table 6, samples 1 and 2.
[7] abbreviates: 50% final concentration, NAP protocol, Table 9.
The mark [8] stands for this setting: 35% final concentration in binding buffer, Jurkat, Table 5, samples 1 and 2.
The mark [9] stands for this setting: 35% final concentration in binding buffer, Jurkat, Table 11.
The mark [10] stands for this setting: 35% final concentration in binding buffer, Jurkat, Table 12.
Setting [11] is: 35% final concentration in binding buffer, Jurkat, Table 14.
The mark [12] stands for this setting: 35% in RNA binding buffer, Jurkat, Agilent Bioanalyzer, FIG. 12A/12D.
Where [13] appears, read: 50% final concentration in binding buffer, Jurkat, Table 7.
Where [14] appears, read: 50% final concentration in binding buffer, Jurkat, Table 8.
The mark [15] stands for this setting: 35% final concentration, white blood cells, Absolutely RNA Miniprep Kit, Table 13.
Where [16] appears, read: 50% final concentration, white blood cells, spin cup protocol, Table 10.
The mark [17] stands for this setting: 10% final concentration in binding buffer, Jurkat, Table 14.
Setting [18] is: 15% final concentration in binding buffer, Jurkat, Table 14.
Setting [19] is: 20% final concentration in binding buffer, Jurkat, Table 14.
Where [20] appears, read: 25% final concentration in binding buffer, Jurkat, Table 14.
[21] abbreviates: 30% final concentration in binding buffer, Jurkat, Table 14.
Where [22] appears, read: 40% final concentration in binding buffer, Jurkat, Table 14.
Setting [23] is: 45% final concentration in binding buffer, Jurkat, Table 14.
Where [24] appears, read: 30% final concentration in binding buffer, Jurkat, Table 11.
[25] abbreviates: 40% final concentration in binding buffer, Jurkat, Table 11.
[26] abbreviates: 45% final concentration in binding buffer, Jurkat, Table 11.
Setting [27] is: 25% final concentration in binding buffer, Jurkat, Table 12.
Setting [28] is: 30% final concentration in binding buffer, Jurkat, Table 12.
Where [29] appears, read: 40% final concentration in binding buffer, Jurkat, Table 12.
Setting [30] is: 10% final concentration, white blood cells, Absolutely RNA Miniprep Kit, Table 13.
[31] abbreviates: 20% final concentration, white blood cells, Absolutely RNA Miniprep Kit, Table 13.
Setting [32] is: 30% final concentration, white blood cells, Absolutely RNA Miniprep Kit, Table 13.
[33] abbreviates: 40% final concentration, white blood cells, Absolutely RNA Miniprep Kit, Table 13.

Each structure is given as a SMILES string. “And” between values parts separate entries of the source, which are not always exact repeats. Equal values may be shown once. Read-outs that look alike come from different tables or passages of the source.

With `C1COCO1` [1,3-dioxolane], the RIN number in series [1] (in binding buffer, concentration not given, FIG. 13) was 7.1.

For `CC(C)=O` [acetone], in series [2], the A260/280 is 2.06 and 2.04 and 1.32.

As for `CC#N` [acetonitrile], in series [2], the A260/280 was 2.07 and 1.74 and 2.26 and 2 and 2.28; the RIN ratio was 8.3. In addition, the A260/280 in series [3] was 1.8 and 1.78 and 1.67 and 1.84 and 1.73 and 1.68.

Regarding `CCO` [ethanol, reference compound], the A260/280 in series [4] (setting [6]) was 2.04 and 2.24; in series [4] (setting [7]) it was 1.82; in series [2] (setting [8]) it was 2.1 and 2.09; in series [2] (setting [9]) it was 2.15; in series [2] (setting [10]) it was 2.05; in series [2] (setting [11]), 2.1 and 2.09. Also, the A260/280 in series [2] (setting [13]) is given as 2.03; in series [2] (setting [14]), 2.03; in series [3] (setting [15]) it was 2.02; in series [3] (setting [16]), 1.21. Besides, the RNA is 12.26 ng/µL and 9.87 ng/µL in series [4] (setting [6]); 2.0 ng/µL in series [4] (setting [7]); 65.81 ng/µL and 67.3 ng/µL in series [2] (setting [8]); 75.95 ng/µL in series [2] (setting [9]); 31.8 ng/µL in series [2] (setting [10]); 65.81 ng/µL and 67.3 ng/µL in series [2] (setting [11]). Moreover, the RNA amounted to 54 ng/µL in series [2] (setting [13]), 54 ng/µL in series [2] (setting [14]), 36 ng/µL in series [3] (setting [15]) and 8.06 ng/µL in series [3] (setting [16]). Besides, the RIN in series [4] (35%, Agilent Bioanalyzer, FIG. 2) turned out to be 8.9; in series [2] (35% in binding buffer, Jurkat, Agilent Bioanalyzer, FIG. 1), 7.9. Further, in series [2] (setting [12]), the “RNA Integrity Number (RIN)” value is recorded as 7.9.

As for `NC=O` [formamide], the “yield of nucleic acid (RNA)” value in series [5] was “did not yield nucleic acid (RNA)”. Besides, the “quantity of material isolated compared with other solvents” value in series [1] (FIG. 14 Panel G) is listed as “an order of magnitude lower”.

`O=S1(=O)CCCC1` [sulfolane]: the A260/280 was found to be 1.82 in series [2] (setting [17]); 2.13 in series [2] (setting [18]); 1.77 in series [2] (setting [19]); 1.94 in series [2] (setting [20]); 2.02 in series [2] (setting [21]); 2.09 in series [2] (setting [11]). For the same compound, the A260/280 is reported as 2.1 in series [2] (setting [22]) and 2.08 in series [2] (setting [23]). The RNA stood at 3.72 ng/µL in series [2] (setting [17]); 4.55 ng/µL in series [2] (setting [18]); 4.63 ng/µL in series [2] (setting [19]); 7.42 ng/µL in series [2] (setting [20]); 27.81 ng/µL in series [2] (setting [21]); 63.8 ng/µL in series [2] (setting [11]). For the same compound, the results for the RNA in series [2] (setting [22]) and in series [2] (setting [23]) were 67.79 ng/µL and 70.49 ng/µL, respectively. In addition, the “RNA Integrity Number (RIN)” value is reported as 8.7 in series [2] (setting [12]); 8.4 in series [2] (40% in RNA binding buffer, Jurkat, Agilent Bioanalyzer, FIG. 12C); 7.9 in series [2] (45% in RNA binding buffer, Jurkat, Agilent Bioanalyzer, FIG. 12B).

As to `COCCOCCOCCOCCOC` [tetraglyme], the A260/280 in series [2] (setting [24]) came to 2.04; in series [2] (setting [9]), 2.02; in series [2] (setting [25]) it was 2.05; in series [2] (setting [26]) it was 2.06. Also, the RNA in series [2] (setting [24]) was 91.8 ng/µL; in series [2] (setting [9]) it was 58.69 ng/µL; in series [2] (setting [25]), 65.44 ng/µL; in series [2] (setting [26]), 59.87 ng/µL. Further, the RIN ratio in series [2] (30% in binding buffer, Jurkat, Agilent Bioanalyzer, FIG. 7) was 6.8.

In the case of `C1CCOC1` [tetrahydrofuran], the A260/280 in series [2] (setting [27]) is reported as 2.1; in series [2] (setting [28]), 2.12; in series [2] (setting [29]), 2.13; in series [3] (setting [30]) it was 1.9; in series [3] (setting [31]) it was 2.08; in series [3] (setting [32]) it was 2.05. Besides, the A260/280 in series [3] (setting [33]) was determined as 2.03. Besides, the RNA in series [2] (setting [27]) is 33.53 ng/µL; in series [2] (setting [28]), 42.4 ng/µL; in series [2] (setting [29]) it was 43.4 ng/µL; in series [3] (setting [30]), 16 ng/µL; in series [3] (setting [31]) it was 20 ng/µL; in series [3] (setting [32]), 35 ng/µL. In addition, the RNA in series [3] (setting [33]) was 37.6 ng/µL. For the same compound, the RIN ratio is recorded as 9.7 in series [2] (30% in binding buffer, Jurkat, Agilent Bioanalyzer, FIG. 8B) and 7.0 in series [3] (30%, white blood cells, Agilent Bioanalyzer, FIG. 10B).

For `O=C(O)C(Cl)(Cl)Cl` [trichloroacetic acid], in series [5], the “yield of nucleic acid (RNA)” value was “did not yield nucleic acid (RNA)”.
